Experiment in all cases: log2 fold change, soluble protein after heating vs DMSO (PISA); higher = thermal stabilisation; K562 lysate, 10 uM; active = over 0.2 and 3.5 SD of the protein, either way, in both replicates (recomputed)
Compound in one experiment: CN1CC[C@H](c2c(O)cc(O)c3c(=O)cc(-c4ccccc4Cl)oc23)[C@H](O)C1 [alvocidib]
An outline of the steps:
(§1)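 Quantification was by TMTpro 16plex LC-MS/MS with equalised channel sums, applied to the supernatant after 21,000xg for 90 min. Samples were crude K562 extract at 1 mg/mL protein in PBS pH 7.4 with 1 mM MgCl2, treated with 10 μM compound for 30 min, heated for 3 min across 48°C-58°C, pooled and brought to 0.5% NP-40 at 4°C. Values are log-two fold changes in thermal stability relative to solvent controls, from duplicates.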

By UniProt entry, the sequences of proteins in these tests, tags left out. Where a name states a change or a piece, a line headed by the entry shows the natural chain unless it says otherwise.
UniProt Q96HW7, whole entry, looked up: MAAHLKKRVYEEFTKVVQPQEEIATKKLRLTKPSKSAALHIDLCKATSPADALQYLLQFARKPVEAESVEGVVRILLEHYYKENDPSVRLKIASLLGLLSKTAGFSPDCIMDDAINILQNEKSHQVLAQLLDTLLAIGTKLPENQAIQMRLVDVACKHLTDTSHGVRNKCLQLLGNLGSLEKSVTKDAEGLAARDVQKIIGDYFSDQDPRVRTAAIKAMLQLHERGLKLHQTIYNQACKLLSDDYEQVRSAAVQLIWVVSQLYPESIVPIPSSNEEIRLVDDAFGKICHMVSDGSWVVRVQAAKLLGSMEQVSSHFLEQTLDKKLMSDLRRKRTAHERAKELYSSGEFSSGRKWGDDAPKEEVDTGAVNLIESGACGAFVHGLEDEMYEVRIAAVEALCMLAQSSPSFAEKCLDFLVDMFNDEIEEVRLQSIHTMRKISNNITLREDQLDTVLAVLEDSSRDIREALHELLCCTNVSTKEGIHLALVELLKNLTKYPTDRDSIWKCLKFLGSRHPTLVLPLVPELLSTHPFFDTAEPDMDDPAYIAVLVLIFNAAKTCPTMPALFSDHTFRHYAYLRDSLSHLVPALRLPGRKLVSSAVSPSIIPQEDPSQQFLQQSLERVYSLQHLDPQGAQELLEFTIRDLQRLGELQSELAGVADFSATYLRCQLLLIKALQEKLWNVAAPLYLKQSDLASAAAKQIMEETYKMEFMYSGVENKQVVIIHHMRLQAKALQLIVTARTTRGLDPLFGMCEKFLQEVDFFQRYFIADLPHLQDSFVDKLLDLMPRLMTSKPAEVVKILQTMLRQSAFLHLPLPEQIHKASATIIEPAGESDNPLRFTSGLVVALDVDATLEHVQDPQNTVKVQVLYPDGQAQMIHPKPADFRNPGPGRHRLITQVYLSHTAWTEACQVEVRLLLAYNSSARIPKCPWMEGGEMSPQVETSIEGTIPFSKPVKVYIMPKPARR
UniProt P17535: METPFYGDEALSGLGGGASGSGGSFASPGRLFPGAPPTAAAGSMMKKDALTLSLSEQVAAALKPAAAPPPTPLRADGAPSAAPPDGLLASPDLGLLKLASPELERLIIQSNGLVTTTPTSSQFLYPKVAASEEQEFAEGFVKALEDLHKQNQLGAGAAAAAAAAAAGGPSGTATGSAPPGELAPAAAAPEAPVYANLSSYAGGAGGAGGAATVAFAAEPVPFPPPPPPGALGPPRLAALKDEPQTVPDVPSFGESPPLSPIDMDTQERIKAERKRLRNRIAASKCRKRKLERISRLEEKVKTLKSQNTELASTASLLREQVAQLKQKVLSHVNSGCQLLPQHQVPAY
UniProt Q8TEX9: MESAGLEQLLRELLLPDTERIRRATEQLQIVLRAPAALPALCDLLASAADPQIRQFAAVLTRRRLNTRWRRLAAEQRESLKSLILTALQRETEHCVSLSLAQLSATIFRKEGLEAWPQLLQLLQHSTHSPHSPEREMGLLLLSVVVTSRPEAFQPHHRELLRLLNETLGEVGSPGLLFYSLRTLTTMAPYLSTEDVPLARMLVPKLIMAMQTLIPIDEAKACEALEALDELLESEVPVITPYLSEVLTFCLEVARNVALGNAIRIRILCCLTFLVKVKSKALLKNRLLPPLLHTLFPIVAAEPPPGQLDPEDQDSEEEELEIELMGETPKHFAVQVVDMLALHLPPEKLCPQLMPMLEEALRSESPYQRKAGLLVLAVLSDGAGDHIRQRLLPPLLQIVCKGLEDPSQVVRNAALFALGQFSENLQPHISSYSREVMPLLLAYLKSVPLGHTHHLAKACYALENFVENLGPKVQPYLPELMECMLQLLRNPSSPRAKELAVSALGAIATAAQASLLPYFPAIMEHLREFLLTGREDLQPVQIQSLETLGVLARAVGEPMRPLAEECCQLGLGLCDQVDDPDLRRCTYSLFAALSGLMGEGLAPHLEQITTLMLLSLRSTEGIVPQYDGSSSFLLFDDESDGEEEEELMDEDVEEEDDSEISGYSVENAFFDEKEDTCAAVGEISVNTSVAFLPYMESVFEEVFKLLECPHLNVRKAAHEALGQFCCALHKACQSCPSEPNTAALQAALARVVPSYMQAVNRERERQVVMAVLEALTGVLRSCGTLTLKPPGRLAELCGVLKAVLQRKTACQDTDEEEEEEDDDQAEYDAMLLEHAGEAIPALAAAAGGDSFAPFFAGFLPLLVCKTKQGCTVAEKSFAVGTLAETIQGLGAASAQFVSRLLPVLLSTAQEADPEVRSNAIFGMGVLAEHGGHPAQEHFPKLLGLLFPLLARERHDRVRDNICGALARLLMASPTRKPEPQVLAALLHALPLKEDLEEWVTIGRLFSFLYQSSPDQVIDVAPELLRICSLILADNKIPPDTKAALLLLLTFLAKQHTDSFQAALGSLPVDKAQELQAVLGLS
UniProt Q9ULR0: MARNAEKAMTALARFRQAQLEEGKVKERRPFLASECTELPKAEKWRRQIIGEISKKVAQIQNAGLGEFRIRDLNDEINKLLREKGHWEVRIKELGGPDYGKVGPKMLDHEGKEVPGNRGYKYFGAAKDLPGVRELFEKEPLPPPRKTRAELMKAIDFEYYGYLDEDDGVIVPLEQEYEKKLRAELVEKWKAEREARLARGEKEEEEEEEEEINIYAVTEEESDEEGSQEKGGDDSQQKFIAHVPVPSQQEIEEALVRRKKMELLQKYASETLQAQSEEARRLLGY
UniProt Q9BW62: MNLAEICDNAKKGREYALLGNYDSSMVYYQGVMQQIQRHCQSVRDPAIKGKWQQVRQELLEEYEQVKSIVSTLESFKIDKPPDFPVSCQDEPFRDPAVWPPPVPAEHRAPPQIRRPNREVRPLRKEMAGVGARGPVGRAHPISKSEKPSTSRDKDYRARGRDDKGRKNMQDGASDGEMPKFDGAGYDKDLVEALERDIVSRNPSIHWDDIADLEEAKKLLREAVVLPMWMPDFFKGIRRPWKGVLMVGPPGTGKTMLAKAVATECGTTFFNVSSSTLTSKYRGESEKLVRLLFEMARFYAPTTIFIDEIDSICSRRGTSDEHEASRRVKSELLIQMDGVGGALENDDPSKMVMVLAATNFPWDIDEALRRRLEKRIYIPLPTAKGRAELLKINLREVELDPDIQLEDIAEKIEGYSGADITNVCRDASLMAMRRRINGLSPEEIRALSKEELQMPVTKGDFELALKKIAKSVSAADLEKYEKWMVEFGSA
UniProt Q9H1B7, whole entry, looked up: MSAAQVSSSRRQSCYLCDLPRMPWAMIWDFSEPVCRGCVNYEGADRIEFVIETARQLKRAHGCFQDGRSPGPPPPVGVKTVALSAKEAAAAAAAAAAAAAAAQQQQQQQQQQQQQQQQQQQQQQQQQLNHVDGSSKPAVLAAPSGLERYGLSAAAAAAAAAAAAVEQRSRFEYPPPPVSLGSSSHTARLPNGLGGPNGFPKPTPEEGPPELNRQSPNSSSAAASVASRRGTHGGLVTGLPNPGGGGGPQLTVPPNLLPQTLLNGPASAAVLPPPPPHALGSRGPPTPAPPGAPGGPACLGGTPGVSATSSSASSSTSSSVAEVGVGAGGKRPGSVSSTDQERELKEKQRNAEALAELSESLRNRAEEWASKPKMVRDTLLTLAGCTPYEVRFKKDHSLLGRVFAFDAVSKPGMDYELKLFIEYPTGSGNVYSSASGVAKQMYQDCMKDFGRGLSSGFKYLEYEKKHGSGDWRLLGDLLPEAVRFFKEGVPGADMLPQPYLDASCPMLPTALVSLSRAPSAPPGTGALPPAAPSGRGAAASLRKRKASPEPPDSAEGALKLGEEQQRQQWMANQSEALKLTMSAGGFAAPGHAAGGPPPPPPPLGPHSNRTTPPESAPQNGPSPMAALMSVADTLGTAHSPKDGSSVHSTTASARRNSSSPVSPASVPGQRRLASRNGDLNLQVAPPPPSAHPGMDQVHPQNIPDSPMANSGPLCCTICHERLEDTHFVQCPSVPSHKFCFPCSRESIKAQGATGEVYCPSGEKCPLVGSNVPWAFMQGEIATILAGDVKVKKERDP
UniProt O95373, whole entry, looked up: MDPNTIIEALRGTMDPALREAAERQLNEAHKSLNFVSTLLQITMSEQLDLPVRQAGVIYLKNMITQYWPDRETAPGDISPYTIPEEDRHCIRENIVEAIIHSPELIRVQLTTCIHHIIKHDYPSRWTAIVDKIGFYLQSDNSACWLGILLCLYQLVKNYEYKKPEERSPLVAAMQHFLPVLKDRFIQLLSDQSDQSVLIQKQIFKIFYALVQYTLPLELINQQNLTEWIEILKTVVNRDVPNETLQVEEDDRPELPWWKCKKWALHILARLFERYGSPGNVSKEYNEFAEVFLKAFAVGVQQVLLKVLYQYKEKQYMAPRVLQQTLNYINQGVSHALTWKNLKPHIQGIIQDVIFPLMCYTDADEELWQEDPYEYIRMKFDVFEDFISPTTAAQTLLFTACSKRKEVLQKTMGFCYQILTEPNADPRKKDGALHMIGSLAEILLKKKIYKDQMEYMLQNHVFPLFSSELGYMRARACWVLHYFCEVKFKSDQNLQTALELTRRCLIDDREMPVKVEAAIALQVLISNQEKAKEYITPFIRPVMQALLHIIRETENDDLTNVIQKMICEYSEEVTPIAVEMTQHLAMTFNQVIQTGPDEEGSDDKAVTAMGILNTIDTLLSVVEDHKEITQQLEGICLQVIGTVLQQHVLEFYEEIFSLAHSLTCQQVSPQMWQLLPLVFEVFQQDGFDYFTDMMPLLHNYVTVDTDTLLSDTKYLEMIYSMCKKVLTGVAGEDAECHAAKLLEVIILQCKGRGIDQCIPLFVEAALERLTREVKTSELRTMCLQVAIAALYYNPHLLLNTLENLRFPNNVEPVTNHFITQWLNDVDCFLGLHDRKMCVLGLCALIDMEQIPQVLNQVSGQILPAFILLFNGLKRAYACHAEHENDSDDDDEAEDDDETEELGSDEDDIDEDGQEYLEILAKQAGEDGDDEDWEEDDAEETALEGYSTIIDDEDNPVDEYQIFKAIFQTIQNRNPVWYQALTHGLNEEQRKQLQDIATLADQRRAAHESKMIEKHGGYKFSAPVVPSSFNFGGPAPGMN
UniProt Q75QN2, whole entry, looked up: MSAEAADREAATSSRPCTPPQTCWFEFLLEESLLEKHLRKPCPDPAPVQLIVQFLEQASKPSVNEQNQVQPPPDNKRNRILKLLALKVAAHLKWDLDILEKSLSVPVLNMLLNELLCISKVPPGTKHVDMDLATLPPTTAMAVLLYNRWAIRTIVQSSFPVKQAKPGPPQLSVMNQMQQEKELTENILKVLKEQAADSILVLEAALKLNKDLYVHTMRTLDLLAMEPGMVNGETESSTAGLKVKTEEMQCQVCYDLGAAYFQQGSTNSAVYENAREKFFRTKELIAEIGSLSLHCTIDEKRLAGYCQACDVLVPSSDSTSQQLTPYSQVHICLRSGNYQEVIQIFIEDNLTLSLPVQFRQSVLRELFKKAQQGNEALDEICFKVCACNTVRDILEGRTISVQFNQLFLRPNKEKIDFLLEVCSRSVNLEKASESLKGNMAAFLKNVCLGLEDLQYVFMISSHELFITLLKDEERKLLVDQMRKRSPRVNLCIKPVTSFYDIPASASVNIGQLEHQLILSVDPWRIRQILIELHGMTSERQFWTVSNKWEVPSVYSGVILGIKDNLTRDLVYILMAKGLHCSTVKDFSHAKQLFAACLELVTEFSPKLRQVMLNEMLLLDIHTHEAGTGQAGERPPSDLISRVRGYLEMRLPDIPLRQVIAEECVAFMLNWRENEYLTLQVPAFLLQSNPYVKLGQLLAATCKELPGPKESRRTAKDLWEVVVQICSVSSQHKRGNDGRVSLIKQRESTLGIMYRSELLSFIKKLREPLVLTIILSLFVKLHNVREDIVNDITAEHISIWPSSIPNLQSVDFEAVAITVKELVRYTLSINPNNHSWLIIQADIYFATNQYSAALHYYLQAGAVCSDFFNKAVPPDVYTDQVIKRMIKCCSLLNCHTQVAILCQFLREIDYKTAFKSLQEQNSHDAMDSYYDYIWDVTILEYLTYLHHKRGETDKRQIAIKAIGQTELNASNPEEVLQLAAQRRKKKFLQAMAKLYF
UniProt Q8IU81: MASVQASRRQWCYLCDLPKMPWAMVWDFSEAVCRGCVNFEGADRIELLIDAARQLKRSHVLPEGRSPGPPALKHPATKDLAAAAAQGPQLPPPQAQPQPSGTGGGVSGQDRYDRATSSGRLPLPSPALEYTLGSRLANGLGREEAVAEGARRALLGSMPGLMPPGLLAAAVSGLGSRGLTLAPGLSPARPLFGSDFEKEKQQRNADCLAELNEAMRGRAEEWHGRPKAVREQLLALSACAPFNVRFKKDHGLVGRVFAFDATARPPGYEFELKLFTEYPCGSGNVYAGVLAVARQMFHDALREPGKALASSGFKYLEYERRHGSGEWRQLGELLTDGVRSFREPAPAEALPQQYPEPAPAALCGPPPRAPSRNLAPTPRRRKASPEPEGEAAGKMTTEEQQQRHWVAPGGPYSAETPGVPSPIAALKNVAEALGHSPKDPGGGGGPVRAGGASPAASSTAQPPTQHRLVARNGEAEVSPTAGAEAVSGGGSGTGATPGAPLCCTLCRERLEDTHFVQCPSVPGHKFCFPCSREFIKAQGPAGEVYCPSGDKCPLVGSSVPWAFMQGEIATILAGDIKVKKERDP

Compound in a further experiment: CN1CCc2c(c3ccccc3n2Cc2ccc(C(=O)NO)cc2)C1 [Tubastatin A]
An outline of the steps: as §1

Compound in experiment [1]: CNC(=O)C1=CC=CC=C1NC2=NC(=NC=C2Cl)NC3=C(C=C(C=C3)N4CCOCC4)OC
An outline of the steps: as §1

Compound in the next experiment: CNC(=O)c1ccc(Nc2ncc(C(F)(F)F)c(NCc3nccnc3N(C)S(C)(=O)=O)n2)cc1 [defactinib]
An outline of the steps: as §1

Compound in experiment [2]: CNc1nc(-c2ccc3c(N)n[nH]c3c2)cc(N2C[C@@H](C(=O)NC3CCCCC3)CC[C@H]2C)n1
An outline of the steps: as §1

Compound in the next experiment: COC(=O)N[C@@H](C)CNc1nccc(-c2cn(C(C)C)nc2-c2cc(Cl)cc(NS(C)(=O)=O)c2F)n1 [encorafenib]
An outline of the steps: as §1

Compound in experiment [3]: COC(=O)[C@H](CCSC)NC(=O)C1=C(C=C(C=C1)NC[C@H](CS)N)C2=CC=CC=C2
An outline of the steps:
as §1

Compound in the next experiment: COc1cc(Nc2ncc3c(n2)-c2ccc(Cl)cc2C(c2c(F)cccc2OC)=NC3)ccc1C(=O)O [alisertib]
An outline of the steps:
as §1

Compound in experiment [4]: COc1cc2nc(-c3cc(F)ccc3O)nc(N[C@@H]3CNC[C@H]3C(C)(C)O)c2cc1OC
An outline of the steps:
as §1

Compound in the next experiment: COc1cc2ncnc(Nc3ccc(F)c(Cl)c3)c2cc1OCCCN1CCOCC1 [gefitinib]
An outline of the steps: as §1

The record followed here is the supplement of paper PMC10849652.

The list shows a part of the results.

Consider INTS4 (UniProt Q96HW7), for which the log2 fold change is inactive: 0.006 with alvocidib; inactive: -0.001 with Tubastatin A; inactive: -0.024 in experiment [1]; inactive: -0.023 with defactinib; inactive: 0.053 in experiment [2]; inactive: 0.005 with encorafenib. The log2 fold change was inactive: -0.006 in [3], inactive: 0.014 with alisertib, inactive: -0.027 in experiment [4] and inactive: -0.024 with gefitinib.

Consider JUND (UniProt P17535), for which the log2 fold change is inactive: -0.053 in the experiment with alvocidib; inactive: -0.02 in the experiment with Tubastatin A; inactive: 0.015 in [1]; inactive: 0.064 in the experiment with defactinib; inactive: 0.016 in experiment [2]; inactive: 0.028 with encorafenib. Also, the log2 fold change is inactive: -0.067 in experiment [3], inactive: 0.011 in the experiment with alisertib, inactive: -0.058 in experiment [4] and inactive: -0.011 with gefitinib.

For IPO4 isoform 2 (UniProt Q8TEX9), the log2 fold change was inactive: -0.019 in the experiment with alvocidib; inactive: -0.009 with Tubastatin A; inactive: 0.014 in experiment [1]; inactive: -0.009 with defactinib; inactive: 0.007 in [2]; inactive: -0.014 with encorafenib. Further, the log2 fold change in experiment [3] was inactive: -0.042; in the experiment with alisertib, inactive: -0.007; in experiment [4] it was inactive: -0.002; in the experiment with gefitinib, inactive: 0.014.

In the case of ISY1 isoform 1 (UniProt Q9ULR0), the log2 fold change was inactive: -0.05 with alvocidib; inactive: -0.03 with Tubastatin A; inactive: 0.013 in experiment [1]; inactive: 0.082 with defactinib; active: 0.366 in [2]; inactive: -0.03 with encorafenib. Moreover, the log2 fold change was inactive: -0.149 in [3], inactive: -0.012 with alisertib, inactive: 0.016 in experiment [4] and inactive: 0.075 in the experiment with gefitinib.

For the target KAT8 (UniProt Q9H7Z6), the log2 fold change was inactive: 0.063 in the experiment with alvocidib; inactive: -0.006 in the experiment with Tubastatin A; inactive: -0.023 in [1]; inactive: -0.076 with defactinib; inactive: -0.012 in [2]; inactive: -0.004 in the experiment with encorafenib. Moreover, the log2 fold change is inactive: 0.036 in [3], inactive: 0.023 with alisertib, inactive: -0.033 in [4] and inactive: -0.013 with gefitinib.

ITGAV (UniProt P06756): the log2 fold change with alvocidib was inactive: -0.017; with Tubastatin A, inactive: 0.051; in [1], inactive: 0.024; with defactinib it was inactive: 0; in experiment [2], inactive: 0.028; with encorafenib, inactive: 0.005. The log2 fold change in experiment [3] is inactive: -0.027; with alisertib it was inactive: -0.021; in experiment [4] it was inactive: 0.033; with gefitinib it was inactive: -0.03.

As to KDM1A (UniProt O60341), the log2 fold change was inactive: -0.034 with alvocidib; inactive: -0.067 in the experiment with Tubastatin A; inactive: -0.023 in experiment [1]; inactive: -0.003 with defactinib; inactive: 0.013 in experiment [2]; inactive: 0.003 in the experiment with encorafenib. Further, the log2 fold change in [3] was inactive: 0.095; with alisertib, inactive: 0.012; in [4], inactive: 0.001; in the experiment with gefitinib, inactive: 0.006.

Consider KATNAL1 (UniProt Q9BW62), for which the log2 fold change with alvocidib is inactive: 0.063; with Tubastatin A it was inactive: -0.054; in experiment [1] it was inactive: 0.051; with defactinib it was inactive: 0.027; in experiment [2], inactive: 0.021; with encorafenib it was inactive: -0.137. Besides, the log2 fold change in [3] was inactive: -0.07; in the experiment with alisertib, inactive: 0; in experiment [4] it was inactive: -0.001; with gefitinib, inactive: -0.236.

Regarding IRF2BPL (UniProt Q9H1B7), the log2 fold change is inactive: -0.076 with alvocidib; inactive: -0.047 in the experiment with Tubastatin A; inactive: 0.01 in [1]; inactive: -0.007 with defactinib; inactive: 0.048 in experiment [2]; inactive: -0.017 with encorafenib. Further, the log2 fold change in experiment [3] is inactive: -0.06; in the experiment with alisertib, inactive: -0.031; in [4], inactive: -0.013; with gefitinib it was inactive: -0.05.

With INTS3 (UniProt Q68E01), the log2 fold change with alvocidib is inactive: -0.003; with Tubastatin A it was inactive: 0.012; in experiment [1], inactive: 0.003; in the experiment with defactinib, inactive: 0.012; in [2] it was inactive: -0.002; with encorafenib, inactive: -0.027. For the same target, the log2 fold change in [3] was inactive: 0.072; with alisertib, inactive: -0.031; in experiment [4], inactive: 0.005; with gefitinib, inactive: 0.047.

Regarding IPO7 (UniProt O95373), the log2 fold change is inactive: -0.035 with alvocidib; inactive: 0.05 with Tubastatin A; inactive: 0.018 in experiment [1]; inactive: -0.007 with defactinib; inactive: 0.022 in [2]; inactive: -0.022 in the experiment with encorafenib. The log2 fold change in experiment [3] is inactive: 0.043; in the experiment with alisertib it was inactive: -0.001; in experiment [4] it was inactive: 0.019; in the experiment with gefitinib, inactive: -0.008.

Turning to IQSEC2 (UniProt Q5JU85), the log2 fold change with alvocidib is inactive: -0.006; with Tubastatin A, inactive: -0.165; in [1], inactive: 0.037; with defactinib it was inactive: -0.028; in experiment [2], inactive: -0.091; in the experiment with encorafenib it was inactive: -0.076. Besides, the log2 fold change in [3] was inactive: 0.04; in the experiment with alisertib, inactive: 0.013; in experiment [4], inactive: 0.067; with gefitinib, inactive: 0.062.

As for IRF2BP2 (UniProt Q7Z5L9), the log2 fold change was inactive: -0.008 with alvocidib; inactive: 0.023 with Tubastatin A; inactive: 0.002 in experiment [1]; inactive: 0.035 in the experiment with defactinib; inactive: 0.055 in experiment [2]; inactive: 0.047 with encorafenib. Besides, the log2 fold change in experiment [3] is inactive: -0.063; in the experiment with alisertib it was inactive: 0.001; in experiment [4], inactive: 0.028; with gefitinib it was inactive: -0.024.

Consider INTS8 (UniProt Q75QN2), for which the log2 fold change in the experiment with alvocidib is inactive: -0.011; in the experiment with Tubastatin A, inactive: -0.013; in [1] it was inactive: 0.083; in the experiment with defactinib, inactive: 0.084; in [2] it was inactive: 0.011; with encorafenib, inactive: 0.098. The log2 fold change in [3] was inactive: -0.111; with alisertib, inactive: -0.008; in experiment [4], inactive: -0.033; with gefitinib it was inactive: -0.04.

For the target IRF2BP1 (UniProt Q8IU81), the log2 fold change is inactive: -0.029 in the experiment with alvocidib; inactive: -0.047 with Tubastatin A; inactive: 0.095 in experiment [1]; inactive: 0.045 with defactinib; inactive: 0.091 in experiment [2]; inactive: 0.025 with encorafenib. The log2 fold change in experiment [3] is inactive: 0.117; with alisertib, inactive: 0.042; in [4], inactive: 0.038; with gefitinib it was inactive: -0.003.
